The record followed here is PMC3705371, “Helicusin E, Isochromophilone X and Isochromophilone XI: New Chloroazaphilones Produced by the Fungus Bartalinia robillardoides Strain LF550” (Marine Drugs, 2013).

This assay has as its system Trichophyton rubrum. The assay is described as follows: Antifungal assay, Trichophyton rubrum (optical density). Type of assay: cell-based. The conditions noted are these: 72 h at 28 °C. The protocol: Trichophyton rubrum. The substances were dissolved in DMSO to a concentration of 10 mM and transferred into a 96-well microtiter plate. For screening purposes, the compounds were tested in a final concentration of 100 μM. For inoculation 5 × 10^4 spores mL^−1 from the fungal strain T. rubrum diluted in Sabouraud medium (1.0% peptone, 2.0% glucose·H2O, pH = 5.6) were added to the microtiter plate. After incubation for 72 h at 28 °C the optical density was measured.

Usually IC50 stands for the midpoint of a concentration-inhibition curve. A lower IC50 goes with greater potency. Regarding `Clc1ccccc1C(c1ccccc1)(c1ccccc1)n1ccnc1` [Clotrimazole, reference compound], it took 200 nM to reach half-maximal inhibition (IC50).
